PubChem BioAssay AID1259308, NCATS, 2017
Test: 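Knock-downs that increase output of a recombinant reporter protein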 (primary screen). System: human HEK293 embryonic kidney cells stably expressing firefly luciferase (HEK-CMV-Luc2-Hygro). Reagents: single siRNA against human genes, 0.8 pmol siRNA per well. Time to read-out: 72 h. Measurement: 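Reporter luminescence and viable-cell signal on separate replicate plates, given as percent of non-targeting control and median/MAD z-scores, plus per-cell luciferase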. Reading the numbers: total luciferase, z-score and total luciferase, % of control: higher = more reporter protein produced; luciferase per cell, z-score: higher = more reporter output per viable cell; viable cells, % of control: higher = more viable cells. Active means: 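Active when the median/MAD z-score for overall luciferase is greater than 3; a gene was taken forward for validation with new siRNAs if at least two of its three siRNAs passed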. Meaning of the calls: active = raised luciferase; inactive = no rise.
Shown is an unselected part of about 59,000 reagents. Over the whole deposit, about 1,510 (2.6%) are marked active. 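Calls use total luciferase alone and ignore viability, so some active siRNAs may act by altering cell number.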

The opening 4 entries, ahead of the listing:
no.	gene knocked down	PubChem SID	total luciferase, z-score	total luciferase, % of control	luciferase per cell, z-score	viable cells, % of control	Call
1	NEIL3	SID160743335	-1.05	61.1	-1.38	98.2	inactive
2	NEIL3	SID160743336	0.0256	82.4	0.277	85.6	inactive
3	NEIL3	SID160743337	-0.767	66.6	-0.336	81.3	inactive
4	RPA2	SID160716011	1.16	105	0.876	93.2	inactive

Main list, from the first entry:
no.	gene knocked down	PubChem SID	total luciferase, z-score	total luciferase, % of control	luciferase per cell, z-score	viable cells, % of control	Call
1	NEIL3	SID160743335	-1.05	61.1	-1.38	98.2	inactive
2	NEIL3	SID160743336	0.0256	82.4	0.277	85.6	inactive
3	NEIL3	SID160743337	-0.767	66.6	-0.336	81.3	inactive
4	RPA2	SID160716011	1.16	105	0.876	93.2	inactive
5	RPA2	SID160716012	-0.932	63.3	-0.955	91	inactive
6	RPA2	SID160716013	-0.0781	80.3	-0.248	95.8	inactive
7	SNX17	SID160723078	0.717	96.1	0.674	89.9	inactive
8	SNX17	SID160723079	0.0591	83.1	0.352	84.6	inactive
9	SNX17	SID160723080	0.295	87.8	-0.181	103	inactive
10	PHKA2	SID160714255	0.0469	82.8	0.0151	92.2	inactive
11	PHKA2	SID160714256	-1.9	44	-2.43	93.2	inactive
12	PHKA2	SID160714257	0.608	94	0.0411	104	inactive
13	UCHL3	SID160718568	1.02	102	-0.0324	115	inactive
14	UCHL3	SID160718570	0.62	94.2	-0.11	108	inactive
15	UCHL3	SID160718571	-0.327	75.4	-0.18	88.3	inactive
16	FBXL6	SID160737805	0.986	101	0.723	93.8	inactive
17	FBXL6	SID160737806	1.87	119	1.78	83.4	inactive
18	FBXL6	SID160737808	1.09	104	0.184	110	inactive
19	ASB11	SID160732499	2.59	133	2.24	82.8	inactive
20	ASB11	SID160757761	-0.794	66.1	-0.298	79.9	inactive
21	ASB11	SID160757762	-1.02	61.6	-0.91	87.5	inactive
22	TAAR8	SID160751206	-0.58	70.4	-0.406	87.5	inactive
23	TAAR8	SID160751207	0.0241	82.4	0.376	83.4	inactive
24	TAAR8	SID160751208	1.51	112	0.724	103	inactive
25	FPGT	SID160720806	0.919	100	0.612	95.3	inactive
26	FPGT	SID160720807	-1.67	48.6	-0.344	59.5	inactive
27	FPGT	SID160720808	-1.4	54	-0.539	69.5	inactive
28	PTGER3	SID160715299	0.207	86	-0.00528	96.2	inactive
29	PTGER3	SID160715300	-0.228	77.4	-0.728	105	inactive
30	PTGER3	SID160715301	0.704	95.9	0.0383	106	inactive
31	RWDD1	SID160733505	0.307	88	0.555	85	inactive
32	RWDD1	SID160740742	1.08	103	1.55	76.7	inactive
33	RWDD1	SID160740743	0.0685	83.2	-0.488	106	inactive
34	GP6	SID160740323	-0.94	63.2	-1.4	102	inactive
35	GP6	SID160740324	0.172	85.3	-0.0621	96.9	inactive
36	GP6	SID160740325	0.273	87.3	0.289	90.4	inactive
37	LAD1	SID160776473	4.17	165	2.8	88.1	active
38	LAD1	SID160776475	0.157	85	-0.416	106	inactive
39	LAD1	SID160776476	1.18	105	1.21	85.7	inactive
